PubChem BioAssay AID1259405 – NCATS | 2018
This is a random part of about 50,000 reagents tested. Of all reagents, about 4,000 (8%) got an active call. 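Mouse siRNA library applied to hamster cells; one well for each siRNA.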 Entries without a mark were called inactive. Reagents against one gene are numbered here. No sequences are given here.

Aim: 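Knock-downs that lift recombinant protein yield in hamster ovary cells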 (primary screen)
System: Chinese hamster CHO-K1 ovary cells with stable secreted eGFP expression
Knock-down reagent: single siRNA against mouse genes, 0.8 pmol siRNA per well (2 µl of 400 nM stock)
Timing: 3 days
Detection: 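Percent of the per-plate non-targeting control median for intracellular GFP per well by laser scanning cytometry and for cell viability by ATP luminescence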
Reading the numbers: GFP, % of control: higher = more GFP per well, higher productivity; viability (ATP), % of control: higher = more viable cells (more ATP)
Call rule: 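Called active when intracellular GFP, relative to negative control, is at or above 120%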

For Or8c8 #1 the deposit lists GFP, % of control 51.3; viability (ATP), % of control 53.5. After knock-down of Or8c8 #2, the screen gave GFP, % of control 100; viability (ATP), % of control 108. Silencing of Or8c8 #3 gave: GFP, % of control 77.6; viability (ATP), % of control 99. Depletion of Onecut2 #1 gave: GFP, % of control 71.6; viability (ATP), % of control 78.8. After knock-down of Onecut2 #2, the record shows GFP, % of control 67.4; viability (ATP), % of control 66.4. Against Onecut2 #3 the deposit lists GFP, % of control 117; viability (ATP), % of control 89.1.

Depletion of Ccrl2 #1 came out at: GFP, % of control 68.5; viability (ATP), % of control 63.4. Ccrl2 #2 scored GFP, % of control 75.9; viability (ATP), % of control 60.9. Knock-down of Ccrl2 #3 gave: GFP, % of control 117; viability (ATP), % of control 66.2. Knock-down of Ddt #1 came out at: GFP, % of control 42.6; viability (ATP), % of control 64.1. Ddt #2 gave GFP, % of control 56.4; viability (ATP), % of control 66.5. With knock-down of Ddt #3, the record shows GFP, % of control 78.6; viability (ATP), % of control 73.8.

For Lin7c #1, the entry reads GFP, % of control 59; viability (ATP), % of control 70.6. Silencing of Lin7c #2 gave: GFP, % of control 63.6; viability (ATP), % of control 75.9. Ca4 #1 gave GFP, % of control 92.7; viability (ATP), % of control 105. Knock-down of Ca4 #2 came out at: GFP, % of control 68.2; viability (ATP), % of control 71. Zfp655 #1 scored GFP, % of control 73.6; viability (ATP), % of control 66.7. After knock-down of Zfp655 #2, the screen gave GFP, % of control 60.9; viability (ATP), % of control 79.2.

With knock-down of Zfp655 #3, the record shows GFP, % of control 74.4; viability (ATP), % of control 87.6. Against Tnfrsf25 #1, the entry reads GFP, % of control 112; viability (ATP), % of control 102. With knock-down of Tnfrsf25 #2 the results were GFP, % of control 74.6; viability (ATP), % of control 91.5. Knock-down of Tnfrsf25 #3 came out at: GFP, % of control 94.7; viability (ATP), % of control 80.9. Against Tmem223 #1, the values are GFP, % of control 123 (active); viability (ATP), % of control 104. With knock-down of Tmem223 #2 the results were GFP, % of control 127 (active); viability (ATP), % of control 124.

With knock-down of Tmem223 #3, the screen gave GFP, % of control 132 (active); viability (ATP), % of control 83.2. With knock-down of Sgpp2 #1, the record shows GFP, % of control 135 (active); viability (ATP), % of control 87. After knock-down of Sgpp2 #2, the record shows GFP, % of control 95.6; viability (ATP), % of control 74.9. Sgpp2 #3 scored GFP, % of control 77.7; viability (ATP), % of control 79.7. For Semp2l2a #1, the values are GFP, % of control 63.5; viability (ATP), % of control 54.1. Silencing of Semp2l2a #2 gave: GFP, % of control 39.3; viability (ATP), % of control 33.8.

Silencing of Semp2l2a #3 resulted in: GFP, % of control 71.3; viability (ATP), % of control 91. With knock-down of Or8b1 #1 the results were GFP, % of control 51.6; viability (ATP), % of control 56.9. Silencing of Or8b1 #2 came out at: GFP, % of control 72.9; viability (ATP), % of control 84.7. Depletion of Or8b1 #3 resulted in: GFP, % of control 73.7; viability (ATP), % of control 35.3. Silencing of Ubxn8 #1 resulted in: GFP, % of control 55.8; viability (ATP), % of control 78.5. Ubxn8 #2 scored GFP, % of control 56.3; viability (ATP), % of control 69.9.

Knock-down of Ubxn8 #3 gave: GFP, % of control 109; viability (ATP), % of control 119. Src gave GFP, % of control 64.4; viability (ATP), % of control 51.9. With knock-down of Dmrtc2 #1, the record shows GFP, % of control 98.1; viability (ATP), % of control 101. With knock-down of Dmrtc2 #2, the record shows GFP, % of control 92; viability (ATP), % of control 69.4. With knock-down of Dmrtc2 #3, the record shows GFP, % of control 90.8; viability (ATP), % of control 71.3.

Targets listed so far whose gene name starts with L or l (2):
Lin7c #1 — GFP, % of control = 59; viability (ATP), % of control = 70.6
Lin7c #2 — GFP, % of control = 63.6; viability (ATP), % of control = 75.9
